The record followed here is publication PMC4483767.

The chains behind the UniProt entries cited, without tags or fusion partners.
UniProt Q15797: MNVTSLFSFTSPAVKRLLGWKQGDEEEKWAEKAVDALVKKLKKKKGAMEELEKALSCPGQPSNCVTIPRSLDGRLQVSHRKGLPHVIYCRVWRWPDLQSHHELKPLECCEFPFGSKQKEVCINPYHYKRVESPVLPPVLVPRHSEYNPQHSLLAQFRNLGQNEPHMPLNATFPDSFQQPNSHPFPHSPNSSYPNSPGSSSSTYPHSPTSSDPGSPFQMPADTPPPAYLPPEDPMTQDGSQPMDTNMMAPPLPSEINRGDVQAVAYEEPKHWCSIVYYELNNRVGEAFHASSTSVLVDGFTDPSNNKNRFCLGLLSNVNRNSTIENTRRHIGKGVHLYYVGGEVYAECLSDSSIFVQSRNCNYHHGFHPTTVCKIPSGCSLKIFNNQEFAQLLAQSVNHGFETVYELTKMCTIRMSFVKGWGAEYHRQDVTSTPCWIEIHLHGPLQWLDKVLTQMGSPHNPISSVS

The experiment deals with SMAD1 (human (endogenous in H9 hESCs)) (UniProt Q15797). The experiment in a line: co-IP; nuclear extracts of hESCs differentiated in FLyA (SMAD2/3 pulldown) or FLyB (SMAD1 pulldown); western blot for BRA and EOMES; IgG as negative control; details in the supplementary methods.

No constants are given. Whether binding was seen depends on the method and setting. Binding seen in cells or lysates may run through a third protein. Some results given as binding are weak or reduced against the parent protein; the word gives no strength.

B1: eomesodermine (EOMES) (protein, UniProt O95936 1-686)
chain: MQLGEQLLVSSVNLPGAHFYPLESARGGSGGSAGHLPSAAPSPQKLDLDKASKKFSGSLSCEAVSGEPAAASAGAPAAMLSDTDAGDAFASAAAVAKPGPPDGRKGSPCGEEELPSAAAAAAAAAAAAAATARYSMDSLSSERYYLQSPGPQGSELAAPCSLFPYQAAAGAPHGPVYPAPNGARYPYGSMLPPGGFPAAVCPPGRAQFGPGAGAGSGAGGSSGGGGGPGTYQYSQGAPLYGPYPGAAAAGSCGGLGGLGVPGSGFRAHVYLCNRPLWLKFHRHQTEMIITKQGRRMFPFLSFNINGLNPTAHYNVFVEVVLADPNHWRFQGGKWVTCGKADNNMQGNKMYVHPESPNTGSHWMRQEISFGKLKLTNNKGANNNNTQMIVLQSLHKYQPRLHIVEVTEDGVEDLNEPSKTQTFTFSETQFIAVTAYQNTDITQLKIDHNPFAKGFRDNYDSSHQIVPGGRYGVQSFFPEPFVNTLPQARYYNGERTVPQTNGLLSPQQSEEVANPPQRWLVTPVQQPGTNKLDISSYESEYTSSTLLPYGIKSLPLQTSHALGYYPDPTFPAMAGWGGRGSYQRKMAAGLPWTSRTSPTVFSEDQLSKEKVKEEIGSSWIETPPSIKSLDSNDSGVYTSACKRRRLSPSNSSNENSPSIKCEDINAEEYSKDTSKGMGGYYAFYTTP
On to B1, for which the binding result was “binds”.

B2: brachyury (T, BRA) (protein, UniProt O15178 1-435)
chain: MSSPGTESAGKSLQYRVDHLLSAVENELQAGSEKGDPTERELRVGLEESELWLRFKELTNEMIVTKNGRRMFPVLKVNVSGLDPNAMYSFLLDFVAADNHRWKYVNGEWVPGGKPEPQAPSCVYIHPDSPNFGAHWMKAPVSFSKVKLTNKLNGGGQIMLNSLHKYEPRIHIVRVGGPQRMITSHCFPETQFIAVTAYQNEEITALKIKYNPFAKAFLDAKERSDHKEMMEEPGDSQQPGYSQWGWLLPGTSTLCPPANPHPQFGGALSLPSTHSCDRYPTLRSHRSSPYPSPYAHRNNSPTYSDNSPACLSMLQSHDNWSSLGMPAHPSMLPVSHNASPPTSSSQYPSLWSVSNGAVTPGSQAAAVSNGLGAQFFRGSPAHYTPLTHPVSAPSSSGSPLYEGAAAATDIVDSQYDAAAQGRLIASWTPVSPPSM
B2: the binding entry is given as “binds”.
